In article PMC5007297:
Results are given in words; binding and its absence hold for the method and conditions named. Some entries that bind do so weakly or less than the wild type. Blank lines part the entries; values can stand above or below the binder they belong to.

Legend:
[1] = target: T1, Sas-4 (Drosophila), Q9VI72; assay: two-hybrid; array-based mating screen (modified Matchmaker Gold; Y2HGold x Y187), every construct as bait and as prey; interactions reported at the highest stringency (QDOXA plates), 30 °C, scored 0-3; details: remark: other sources report otherwise
T1 chain: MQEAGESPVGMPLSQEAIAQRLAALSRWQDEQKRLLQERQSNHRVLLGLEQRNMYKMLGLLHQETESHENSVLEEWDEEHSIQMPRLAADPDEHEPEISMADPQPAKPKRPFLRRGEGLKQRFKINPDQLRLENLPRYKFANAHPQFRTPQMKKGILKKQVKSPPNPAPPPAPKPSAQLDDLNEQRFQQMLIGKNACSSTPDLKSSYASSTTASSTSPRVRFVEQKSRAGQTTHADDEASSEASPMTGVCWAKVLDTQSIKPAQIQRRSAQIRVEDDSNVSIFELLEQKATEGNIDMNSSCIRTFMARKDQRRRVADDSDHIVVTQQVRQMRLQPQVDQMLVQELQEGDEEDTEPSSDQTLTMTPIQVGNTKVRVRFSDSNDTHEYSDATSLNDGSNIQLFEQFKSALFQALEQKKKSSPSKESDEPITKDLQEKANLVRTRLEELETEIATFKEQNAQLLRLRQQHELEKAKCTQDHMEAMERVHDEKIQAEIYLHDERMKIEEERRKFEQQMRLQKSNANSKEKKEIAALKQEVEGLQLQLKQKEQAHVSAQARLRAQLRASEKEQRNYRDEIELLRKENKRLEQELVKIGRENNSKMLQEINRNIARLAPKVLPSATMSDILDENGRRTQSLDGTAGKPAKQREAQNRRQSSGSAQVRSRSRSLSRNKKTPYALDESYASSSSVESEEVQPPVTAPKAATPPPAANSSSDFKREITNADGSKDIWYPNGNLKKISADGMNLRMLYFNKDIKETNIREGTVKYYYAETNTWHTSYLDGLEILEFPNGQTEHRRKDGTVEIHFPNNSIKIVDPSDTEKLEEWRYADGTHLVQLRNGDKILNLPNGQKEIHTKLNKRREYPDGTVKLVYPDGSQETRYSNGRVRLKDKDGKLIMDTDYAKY

Plk4 (Drosophila) = target: T2, Plk4 (Drosophila) (UniProt O97143); assay: as above
T2 sequence: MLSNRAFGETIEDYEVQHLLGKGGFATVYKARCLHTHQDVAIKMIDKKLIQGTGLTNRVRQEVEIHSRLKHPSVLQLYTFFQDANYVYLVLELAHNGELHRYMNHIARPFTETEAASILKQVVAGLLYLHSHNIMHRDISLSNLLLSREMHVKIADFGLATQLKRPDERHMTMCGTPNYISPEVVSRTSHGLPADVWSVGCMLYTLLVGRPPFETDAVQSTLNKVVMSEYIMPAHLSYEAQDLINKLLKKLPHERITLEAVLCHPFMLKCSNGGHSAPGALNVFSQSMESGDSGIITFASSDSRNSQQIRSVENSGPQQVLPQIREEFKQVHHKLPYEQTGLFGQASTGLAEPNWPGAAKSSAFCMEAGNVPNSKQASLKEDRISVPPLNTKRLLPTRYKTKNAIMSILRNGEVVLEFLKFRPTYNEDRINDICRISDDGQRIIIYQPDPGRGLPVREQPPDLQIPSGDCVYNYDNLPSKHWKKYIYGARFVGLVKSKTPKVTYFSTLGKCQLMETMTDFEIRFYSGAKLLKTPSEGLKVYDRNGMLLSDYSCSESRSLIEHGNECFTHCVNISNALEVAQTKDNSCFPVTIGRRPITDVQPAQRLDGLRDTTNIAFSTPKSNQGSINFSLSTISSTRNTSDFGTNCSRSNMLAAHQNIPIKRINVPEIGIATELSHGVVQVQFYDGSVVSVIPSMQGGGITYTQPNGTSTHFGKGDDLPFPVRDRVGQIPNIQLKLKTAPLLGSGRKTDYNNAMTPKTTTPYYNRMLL

binding [1]: binds
B1: Sas-4, Q9VI72 1-901 (protein)
chain: T1 chain

binding (Plk4 (Drosophila)): binds
B2: Asl (protein, UniProt Q9VNE4 1-994)
chain: MNTPGISLFQGADALNINSTLDRQEEEEALQDQKRREEELGRIMVNAFDDLLDEENTIDSTTNYQSELEQPPVLPNYPSHPHHKPLQDDAQRANEIEMHRLQILLESKNNELQNVNQVANAAHKKLDDLQKHLSIMQAELDRAIREKQNTHELLVETKETCSNKDSDLDKLRSEKKQLEEDNTRLVGQLEAAKTLLTDVQSKYDMVQASKQKWEERNADLRLKQMEEAHRAQSDLLQQQLCQMKDQLDRKQNELDQINSRYNALQSGHETMLVDKAAKINELSQALDEAQMRCNQLSARPDLQAENRRQQQCIVDLKARIAYLEQTVASLHERLNETTTELDLIDSVIQQHQADESPTSRLSQMGGSRLVGSTPLNPLDRVGHIKQELYRALGNLKNKREEVRRLEKLLEERNQELRVLRDQENQSLVQLETLNEGKMRLENKVKAMQQELEEQKHRSQQESDVHSQLNSIVAERDALREKRQQIEEDLEQLKQQNESLQRNYDQLSQENRQLRTRETADNLRLELERHKILLRDSQSEVERLKKLYSDIATDKESLGYELRKLRESDTLKELQDQRQNLATVQRNLQLAEMKSEELKKLLETEKLSHERDLQALRQRSEREKREEAVAVAKESSENCSKCIESIAEITKAEIQLLKLQNVNSMQAKELKELEHALEQSKNLQAEMQEKIELSNKQDELISDLKERAKQFEAYIRQQEEHKQQNKCTPSPKSNSVSPSDPSPKELTQNRIRLIEQRVRDEMAKLFAAELKRFTNRLQKSEERSQCLQREYQTVCAELQQRQTEVDLLKQTILAERENIDEILAGREEKQKEMLQKCRQELQAKNQRIAELLREVEEQHASIDSERQSMKAVMAQWEKQRQSVDQVEHHWRQQLESLRSTHEEAMRSAQQRYQSAKRTAHNYKLYAEDKEAHMKREYERIKHEYELSLAKIEATMNQHLERRSREKHRDKENVPSNSSSDPITNSNRKPKGNGHS

binding (Plk4 (Drosophila)): binds
B3: Ana2 (protein, UniProt Q9XZ31 1-420)
chain: MFVPETEDMLPRLAPRPSAAVPMGHTNEIIGPTVPEVSILFGQPPQDPQMQPQQPNHAHQESSPRAAPTFASWKKQMLPRVNFSPILATELGPRTAPSSNSPCSSKEYQVMPRDRNYASDAQQTTNHMNCNAGGYNAEPKQQAYQSRRLSSSSNADVLTICAGTQTDPFNPSPPRKSLPQVVYSDIDVSNLANKSDLAALVSLVESVRHEQQQLRNLCEMILEQQQRAKPEAISKASSTTGTQCDILTTNQAGRRLSPIMQDYIAEEEEPLPPPQARVIPQFPSPRPHPPIAQSTGYRANTPQAKRIPQLAKPNTEKSMVMNELALKYLRQPVDELMKDMRLGASPKSPNPEPLRPIDNIGHAQSPNDISNASYKYLKKYRLLPEEQLEPVCPQSPMAATAPSPHIQLDLENIRNQPKLL
